# Experimental data as given in the supplement of paper PMC8728848.
# The other results are listed elsewhere or left out.
# B1: SRS6 (Toxoplasma gondii), Q9NH12 (protein)
# chain: MARTGSMQQRRGGFQTTARMLMAVCVSGVLLLSSGPSSANKLTEGQQNQNSGPGAATQEGPTIEGAVAKCVLKTTAAENGSSRAKNTTGLTLSKENLVVSLQCSGEKNAIVPKDQKKVCSAAPNAKVADCKGADTDKQVTLKSLLGTSGDIQWEKTIVSTDNKGEVMTLKIKESELPLFDKAFFVGCEEDKAQTRTSQATECKVNVSVKARPSTVGENNVVTCAYGKDSNPRPLEVEMSADNDTLTIDCGTDGSLKPTKYTEEFCVTDNSQLESCTTKKFSEILPTFLPSWWVSDSQNGSAKLTIPESGFPEEQQQFRLGCVPKKTTQSPQANPSVKTEKEEGAQNTDASTSNCSVIVTVKASNFSSLASSIAPTAAVAGGAAALTGFLVGSF
# How the values were obtained:
# Experiment in all cases: glycan array binding signal (z-score within array); higher = stronger binding
# Details in all cases: glycan notation: IUPAC condensed, linker removed
# [1] = biological target: Gal(b1-3)GalNAc(a1-3)[Fuc(a1-2)]Gal(b1-4)GlcNAc
# Outline: (§1)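 The binding signal is a Z-score computed within each array and averaged over linkers. Arrays of the same protein sequence at different concentrations or buffers were also averaged together. Data originate from 3228 arrays in the Consortium for Functional Glycomics database, kept only where the protein sequence was available.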
# [2] = biological target: Gal(b1-3)GalNAc(b1-3)Gal(a1-4)Gal(b1-4)Glc
# Outline: as §1
# [3] = biological target: Gal(b1-3)GalNAc(b1-4)Gal(b1-4)Glc
# Outline: as §1
# [4] = biological target: Gal(b1-3)GalNAc(b1-4)[Neu5Ac(a2-3)]Gal(b1-4)Glc
# Outline: as §1
# Gal(b1-3)GlcNAc = biological target: Gal(b1-3)GlcNAc
# Outline: as §1
# [5] = biological target: Gal(b1-3)GlcNAc(a1-6)Gal(b1-4)GlcNAc
# Outline: as §1
# [6] = biological target: Gal(b1-3)GlcNAc(b1-2)Man(a1-3)[Gal(b1-3)GlcNAc(b1-2)Man(a1-6)]Man(b1-4)GlcNAc(b1-4)GlcNAc
# Outline: as §1
# [7] = biological target: Gal(b1-3)GlcNAc(b1-2)Man(a1-3)[Gal(b1-3)GlcNAc(b1-2)Man(a1-6)]Man(b1-4)GlcNAc(b1-4)[Fuc(a1-6)]GlcNAc
# Outline: as §1
# [8] = biological target: Gal(b1-3)GlcNAc(b1-3)Gal(b1-3)GlcNAc
# Outline: as §1
# [9] = biological target: Gal(b1-3)GlcNAc(b1-3)Gal(b1-4)Glc
# Outline: as §1
# [10] = biological target: Gal(b1-3)GlcNAc(b1-3)Gal(b1-4)GlcNAc
# Outline: as §1
# [11] = biological target: Gal(b1-3)GlcNAc(b1-3)Gal(b1-4)GlcNAc(b1-6)[Gal(b1-3)GlcNAc(b1-3)]Gal(b1-4)Glc
# Outline: as §1
# [12] = biological target: Gal(b1-3)GlcNAc(b1-3)Gal(b1-4)[Fuc(a1-3)]GlcNAc(b1-6)[Gal(b1-3)GlcNAc(b1-3)]Gal(b1-4)Glc
# Outline: as §1
# [13] = biological target: Gal(b1-3)GlcNAc(b1-3)GalNAc
# Outline: as §1
# [14] = biological target: Gal(b1-3)GlcNAc(b1-6)Gal(b1-4)GlcNAc
# Outline: as §1
# [15] = biological target: Gal(b1-3)[Fuc(a1-4)]GlcNAc
# Outline: as §1
# [16] = biological target: Gal(b1-3)[Fuc(a1-4)]GlcNAc(b1-2)Man(a1-3)[Gal(b1-3)[Fuc(a1-4)]GlcNAc(b1-2)Man(a1-6)]Man(b1-4)GlcNAc(b1-4)GlcNAc
# Outline: as §1
# [17] = biological target: Gal(b1-3)[Fuc(a1-4)]GlcNAc(b1-2)Man(a1-3)[Gal(b1-3)[Fuc(a1-4)]GlcNAc(b1-2)Man(a1-6)]Man(b1-4)GlcNAc(b1-4)[Fuc(a1-6)]GlcNAc
# Outline: as §1
# [18] = biological target: Gal(b1-3)[Fuc(a1-4)]GlcNAc(b1-3)Gal(b1-3)[Fuc(a1-4)]GlcNAc
# Outline: as §1
# [19] = biological target: Gal(b1-3)[Fuc(a1-4)]GlcNAc(b1-3)Gal(b1-4)GlcNAc
# Outline: as §1
# [20] = biological target: Gal(b1-3)[Fuc(a1-4)]GlcNAc(b1-3)Gal(b1-4)[Fuc(a1-3)]GlcNAc
# Outline: as §1
# [21] = biological target: Gal(b1-3)[GlcNAc(b1-6)]GalNAc
# Outline: as §1
# [22] = biological target: Gal(b1-3)[Neu5Ac(a2-6)]GalNAc
# Outline: as §1
# [23] = biological target: Gal(b1-3)[Neu5Ac(a2-6)]GlcNAc(b1-6)Gal(b1-4)Glc
# Outline: as §1
# [24] = biological target: Gal(b1-3)[Neu5Ac(b2-6)]GalNAc
# Outline: as §1
# [25] = biological target: Gal(b1-4)GalNAc(a1-3)[Fuc(a1-2)]Gal(b1-4)GlcNAc
# Outline: as §1
# [26] = biological target: Gal(b1-4)GalNAc(b1-3)[Fuc(a1-2)]Gal(b1-4)GlcNAc
# Outline: as §1
# Gal(b1-4)Glc = biological target: Gal(b1-4)Glc
# Outline: as §1
# Gal(b1-4)Glc6S = biological target: Gal(b1-4)Glc6S
# Outline: as §1
# Gal(b1-4)GlcNAc = biological target: Gal(b1-4)GlcNAc
# Outline: as §1
binder,measurement,setting,value
B1,glycan array binding signal (z-score),[1],0.286
same,glycan array binding signal (z-score),[2],-0.397
same,glycan array binding signal (z-score),[3],-1.59
same,glycan array binding signal (z-score),[4],0.417
same,glycan array binding signal (z-score),Gal(b1-3)GlcNAc,-0.316
same,glycan array binding signal (z-score),[5],-0.152
same,glycan array binding signal (z-score),[6],0.296
same,glycan array binding signal (z-score),[7],1.28
same,glycan array binding signal (z-score),[8],-0.195
same,glycan array binding signal (z-score),[9],-0.592
same,glycan array binding signal (z-score),[10],-0.083
same,glycan array binding signal (z-score),[11],-0.007
same,glycan array binding signal (z-score),[12],-0.71
same,glycan array binding signal (z-score),[13],1.44
same,glycan array binding signal (z-score),[14],-0.783
same,glycan array binding signal (z-score),[15],-0.34
same,glycan array binding signal (z-score),[16],0.947
same,glycan array binding signal (z-score),[17],0.922
same,glycan array binding signal (z-score),[18],-0.067
same,glycan array binding signal (z-score),[19],0.535
same,glycan array binding signal (z-score),[20],0.447
same,glycan array binding signal (z-score),[21],-0.607
same,glycan array binding signal (z-score),[22],-0.41
same,glycan array binding signal (z-score),[23],-0.201
same,glycan array binding signal (z-score),[24],0.543
same,glycan array binding signal (z-score),[25],-0.478
same,glycan array binding signal (z-score),[26],0.295
same,glycan array binding signal (z-score),Gal(b1-4)Glc,-0.789
same,glycan array binding signal (z-score),Gal(b1-4)Glc6S,0.04
same,glycan array binding signal (z-score),Gal(b1-4)GlcNAc,-0.254

# Quoted at random: two entries already listed, in no set order.
binder,measurement,setting,value
B1,glycan array binding signal (z-score),[20],0.447
same,glycan array binding signal (z-score),[13],1.44
